Data reported in US20250049891A1, “NOVEL PEPTIDE DERIVATIVE DERIVED FROM ADIPONECTIN AND USE THEREOF” (SEOUL NATIONAL UNIVERSITY HOSPITAL, priority 2021, published 2025).
At least one structure is not confirmed: it was looked up by name or label, or the drawing left a doubt. Peptide text beside a SMILES is read from it.

Columns and labels:
AMPK phosphorylation = AMPK phosphorylation activity in mouse adipocytes (Western blot); type: cell-based; settings: 3T3-L1, 10 μM, 24 hours; for AMPK phosphorylation activity (fold change): APN5 = 1.0
Description: There were confirmed effects of the peptide derivatives of the present disclosure on the expression and receptor activity of adiponectin in mouse adipocytes as a main adiponectin production site. A mouse adipocyte cell line 3T3-L1 was treated with each of the peptide derivatives of the present disclosure at a concentration of 10 μM and cultured for 24 hours, and then cells were obtained. Thereafter, the proteins were extracted and the effect on AMPK phosphorylation, which was responsible for the main downstream signaling of adiponectin, was confirmed by Western blot.

adiponectin receptor 1 = molecular target: T1, adiponectin receptor 1 (Mus musculus, UniProt Q91VH1); experiment: AMPK phosphorylation activity after knockdown of adiponectin receptor 1 (siRNA, Western blot); type: cell-based; settings: 3T3-L1, adiponectin receptor 1 siRNA, 10 μM, 24 hours
T1 construct: a mouse adipocyte cell line 3T3-L1 was treated with siRNA of an adiponectin receptor 1 to be knocked down; endogenous in cells; host or cells: 3T3-L1 mouse adipocyte cell line
T1 sequence (Q91VH1 1-375): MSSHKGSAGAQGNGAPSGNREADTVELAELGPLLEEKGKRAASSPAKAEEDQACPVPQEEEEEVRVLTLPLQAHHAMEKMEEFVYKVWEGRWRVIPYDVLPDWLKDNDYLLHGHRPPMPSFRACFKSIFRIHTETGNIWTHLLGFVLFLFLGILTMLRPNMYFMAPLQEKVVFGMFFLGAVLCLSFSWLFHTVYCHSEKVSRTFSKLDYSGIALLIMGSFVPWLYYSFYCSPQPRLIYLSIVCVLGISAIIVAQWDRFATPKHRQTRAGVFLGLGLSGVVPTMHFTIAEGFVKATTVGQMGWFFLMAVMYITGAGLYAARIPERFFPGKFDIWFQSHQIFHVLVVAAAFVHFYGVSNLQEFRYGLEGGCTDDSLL
Description: In order to verify whether the peptide derivative of the present disclosure bound to an adiponectin receptor 1, a mouse adipocyte cell line 3T3-L1 was treated with siRNA of an adiponectin receptor 1 to be knocked down, and each of the peptide derivatives of the present disclosure was treated at 10 μM and cultured for 24 hours, and then cells were obtained. Thereafter, the proteins were extracted and it was confirmed by Western blot whether AMPK phosphorylation activity, which had been increased by the peptide derivatives, was lost.

Compound	AMPK phosphorylation activity (fold change) (AMPK phosphorylation)	AMPK phosphorylation activity after knockdown of the adiponectin receptor 1 (adiponectin receptor 1)	AMPK phosphorylation activity compared to APN5 (in words) (AMPK phosphorylation; compared to APN5)
Ac-GIYYF-OH [DS-2, AcNH-GIYYF-OH]	1.3	–	–
CCC(C)C(NC(=O)CNC(C)=O)C(=O)NC(Cc1ccc(O)cc1)C(=O)NC(Cc1ccc(O)cc1)C(=O)NC(Cc1ccccc1)C(=O)O (stereo not drawn) [DS-2, AcNH-GIYYF-OH] (Ac-GIYYF-OH; configuration not given here)	–	decreased the AMPK phosphorylation activity after knockdown of the adiponectin receptor 1	significant effect of increasing AMPK phosphorylation activity
H-GDYYF-OH [DS-5, NH2-GDYYF-OH]	2.0	–	–
H-GDYYF-NH2 [DS-7, NH2-GDYYF-NH2]	1.3	–	–
Ac-GDYYF-NH2 [DS-8, AcNH-GDYYF-NH2]	2.6	–	–
